Results are given in words; binding and its absence hold for the method and conditions named. Binding seen in cells or lysates may run through a third protein. Some results given as binding are weak or reduced against the parent protein; the word gives no strength.

Chains of the proteins cited; added tags and fusions are not shown. Lines headed by an entry give the natural chain unless they say otherwise; changes in a name come on top.
UniProt Q13153: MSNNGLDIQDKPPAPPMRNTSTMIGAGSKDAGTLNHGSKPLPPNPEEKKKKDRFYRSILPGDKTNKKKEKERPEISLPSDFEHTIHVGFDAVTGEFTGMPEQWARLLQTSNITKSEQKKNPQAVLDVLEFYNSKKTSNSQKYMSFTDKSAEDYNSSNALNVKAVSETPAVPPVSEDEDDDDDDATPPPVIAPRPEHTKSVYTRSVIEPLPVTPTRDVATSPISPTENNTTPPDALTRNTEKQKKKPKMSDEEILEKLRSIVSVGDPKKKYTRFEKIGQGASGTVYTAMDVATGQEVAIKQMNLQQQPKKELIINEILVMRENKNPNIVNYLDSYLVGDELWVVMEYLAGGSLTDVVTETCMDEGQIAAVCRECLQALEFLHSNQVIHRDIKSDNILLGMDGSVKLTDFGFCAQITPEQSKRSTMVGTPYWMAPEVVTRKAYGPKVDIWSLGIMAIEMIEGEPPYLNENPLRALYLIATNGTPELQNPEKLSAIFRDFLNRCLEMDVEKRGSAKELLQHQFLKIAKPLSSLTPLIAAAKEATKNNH
UniProt P60953: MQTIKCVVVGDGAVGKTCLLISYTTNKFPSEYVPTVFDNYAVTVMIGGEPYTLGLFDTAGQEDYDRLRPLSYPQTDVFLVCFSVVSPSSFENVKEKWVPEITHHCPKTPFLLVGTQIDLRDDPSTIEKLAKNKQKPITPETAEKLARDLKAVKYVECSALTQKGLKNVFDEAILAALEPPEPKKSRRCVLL

In one experiment the target is GFP-PAK1 (WT) (UniProt Q13153). Nature of the experiment: co-IP; GFP-PAK1 (WT or S79A) coexpressed with Myc-Cdc42 in 293T cells; extracts immunoprecipitated with anti-GFP, blotted with anti-Myc; lysis buffer 50 mM HEPES pH 7.4, 150 mM NaCl, 1 mM EDTA, 10% glycerol, 1% Triton X100 with phosphatase inhibitors; antibodies overnight at 4°C.
The next experiment addresses GST-Cdc42 (UniProt P60953). Nature of the experiment: pull-down; lysates of 293T cells expressing GFP-PAK1 WT or S79A incubated with GST-Cdc42 or GST-Rac1 bound to GST-beads; eluates blotted with anti-GFP; only the target purified.

In the case of Myc-Cdc42 (from UniProt P60953 1-191), in the experiment with GFP-PAK1 (WT), the binding result is given as “binds”.
In the case of “GFP-PAK1^S79A (from UniProt Q13153 1-545) (enzyme)”, the binding entry in the experiment with GST-Cdc42 is listed as “binds”.
In the case of “GFP-PAK1 (WT) (from UniProt Q13153 1-545) (enzyme)”, in the experiment with GST-Cdc42, the binding entry was “binds”.

(Values after publication PMC3731272.)
